Data: patent publication US20220064324A1 (US Dept. of Health and Human Services, published 2022)
These are yes or no findings as the source states them, for the method shown. Some results given as binding are weak or reduced against the parent protein; the word gives no strength.

The chains behind the UniProt entries cited, without tags or fusion partners. Where a name states a change or a piece, a line headed by the entry shows the natural chain unless it says otherwise.
UniProt Q13421: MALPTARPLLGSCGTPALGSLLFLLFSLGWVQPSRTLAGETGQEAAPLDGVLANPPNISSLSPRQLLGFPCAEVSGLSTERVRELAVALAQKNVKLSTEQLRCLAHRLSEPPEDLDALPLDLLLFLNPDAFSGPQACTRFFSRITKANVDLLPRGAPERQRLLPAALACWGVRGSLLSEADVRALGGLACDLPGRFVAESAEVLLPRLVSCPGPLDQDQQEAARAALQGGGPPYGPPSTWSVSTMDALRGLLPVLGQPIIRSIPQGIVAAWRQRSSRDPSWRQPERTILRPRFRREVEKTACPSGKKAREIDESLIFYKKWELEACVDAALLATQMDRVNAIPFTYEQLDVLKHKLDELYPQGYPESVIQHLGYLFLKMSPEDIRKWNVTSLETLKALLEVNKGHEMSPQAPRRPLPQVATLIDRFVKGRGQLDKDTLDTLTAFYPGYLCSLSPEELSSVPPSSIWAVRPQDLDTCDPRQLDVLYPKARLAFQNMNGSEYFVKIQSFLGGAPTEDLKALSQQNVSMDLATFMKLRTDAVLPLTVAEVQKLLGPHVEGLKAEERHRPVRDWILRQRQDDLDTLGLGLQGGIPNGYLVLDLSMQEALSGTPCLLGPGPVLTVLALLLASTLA

What was measured:
[1] = target: T1, mouse mesothelin protein (ELISA antigen) (mouse) (UniProt Q61468); assay: ELISA
T1 sequence (looked up): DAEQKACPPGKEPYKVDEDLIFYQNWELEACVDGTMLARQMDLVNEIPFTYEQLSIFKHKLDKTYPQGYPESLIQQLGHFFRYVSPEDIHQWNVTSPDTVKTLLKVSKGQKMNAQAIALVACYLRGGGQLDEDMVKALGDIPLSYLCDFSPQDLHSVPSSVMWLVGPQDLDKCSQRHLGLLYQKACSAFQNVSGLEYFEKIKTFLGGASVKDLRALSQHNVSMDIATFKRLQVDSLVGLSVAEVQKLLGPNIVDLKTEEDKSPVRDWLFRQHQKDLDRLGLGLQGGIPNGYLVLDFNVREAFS

[2] = target: human mesothelin protein (ELISA antigen) (human) (UniProt Q13421); assay: ELISA
[3] = target: full-length human mesothelin protein (human) (UniProt Q13421); assay: ELISA on mesothelin fragments
[4] = target: full-length human mesothelin protein (human) (UniProt Q13421); assay: ELISA, antigen printed as MSLN, VHH concentration not given
[5] = target: full-length human mesothelin protein (human) (UniProt Q13421); assay: ELISA on full-length mesothelin (called competitive ELISA in paragraph 233), VHH concentration not given
[6] = target: T1, mouse mesothelin protein (ELISA antigen) (mouse); assay: ELISA, single bars, VHH concentration not given; antigens rFc-mouse MSLN and R&D mouse MSLN
[7] = target: human mesothelin protein (ELISA antigen) (human) (UniProt Q13421); assay: ELISA, single bars, VHH concentration not given; antigens Fc-human MSLN and R&D human MSLN
[8] = target: full-length human mesothelin protein (human) (UniProt Q13421); assay: competitive ELISA with mesothelin fragments

Measured: binding

B1: A101 camel single-domain (VHH) monoclonal antibody (VHH)
VHH: QVQLVESGGGTVQAGGSLKLACAASGLPRTYNVMGWFRQAPGKEREGVAIIYTTTGATYYRDSVKGRATISQDNAKKSVSLQMNSLRPEDTAIYYCVARQPNSGPWEYWGQGTQVTVSS
notes: Isolated from a camel VHH phage display library; also called A101 antibody; A101 anti-mesothelin VHH antibody
binds: all assays above

B2: G8 camel single-domain (VHH) monoclonal antibody (VHH)
VHH: QVKLEESGGGSVQAGGSLRLSCTTSGYTNSYKWMGWFRQAPGQEREGVAVIYTGNDRTYYSDSVKGRFTISRDNAKNMIYLDMTRLRPEDSAVYECAIGHDGAWRYWGQGTQVTVSS
notes: Isolated from a camel VHH phage display library; also called G8 antibody; G8 anti-mesothelin VHH antibody
binds: all assays above
